Assay results taken from PMC7486386.
These are yes or no findings as the source states them, for the method shown. In cells and extracts the contact can be indirect. Some entries that bind do so weakly or less than the wild type.

By UniProt entry, the sequences of proteins in these tests, tags left out.
UniProt P16220: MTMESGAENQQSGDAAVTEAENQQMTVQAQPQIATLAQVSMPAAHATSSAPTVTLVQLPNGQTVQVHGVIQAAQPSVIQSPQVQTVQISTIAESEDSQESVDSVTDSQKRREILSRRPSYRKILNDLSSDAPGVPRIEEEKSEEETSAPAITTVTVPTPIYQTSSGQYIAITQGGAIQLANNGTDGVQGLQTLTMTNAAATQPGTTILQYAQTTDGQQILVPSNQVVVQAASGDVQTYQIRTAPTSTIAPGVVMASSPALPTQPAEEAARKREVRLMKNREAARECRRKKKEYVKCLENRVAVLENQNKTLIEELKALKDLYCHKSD
UniProt Q92793: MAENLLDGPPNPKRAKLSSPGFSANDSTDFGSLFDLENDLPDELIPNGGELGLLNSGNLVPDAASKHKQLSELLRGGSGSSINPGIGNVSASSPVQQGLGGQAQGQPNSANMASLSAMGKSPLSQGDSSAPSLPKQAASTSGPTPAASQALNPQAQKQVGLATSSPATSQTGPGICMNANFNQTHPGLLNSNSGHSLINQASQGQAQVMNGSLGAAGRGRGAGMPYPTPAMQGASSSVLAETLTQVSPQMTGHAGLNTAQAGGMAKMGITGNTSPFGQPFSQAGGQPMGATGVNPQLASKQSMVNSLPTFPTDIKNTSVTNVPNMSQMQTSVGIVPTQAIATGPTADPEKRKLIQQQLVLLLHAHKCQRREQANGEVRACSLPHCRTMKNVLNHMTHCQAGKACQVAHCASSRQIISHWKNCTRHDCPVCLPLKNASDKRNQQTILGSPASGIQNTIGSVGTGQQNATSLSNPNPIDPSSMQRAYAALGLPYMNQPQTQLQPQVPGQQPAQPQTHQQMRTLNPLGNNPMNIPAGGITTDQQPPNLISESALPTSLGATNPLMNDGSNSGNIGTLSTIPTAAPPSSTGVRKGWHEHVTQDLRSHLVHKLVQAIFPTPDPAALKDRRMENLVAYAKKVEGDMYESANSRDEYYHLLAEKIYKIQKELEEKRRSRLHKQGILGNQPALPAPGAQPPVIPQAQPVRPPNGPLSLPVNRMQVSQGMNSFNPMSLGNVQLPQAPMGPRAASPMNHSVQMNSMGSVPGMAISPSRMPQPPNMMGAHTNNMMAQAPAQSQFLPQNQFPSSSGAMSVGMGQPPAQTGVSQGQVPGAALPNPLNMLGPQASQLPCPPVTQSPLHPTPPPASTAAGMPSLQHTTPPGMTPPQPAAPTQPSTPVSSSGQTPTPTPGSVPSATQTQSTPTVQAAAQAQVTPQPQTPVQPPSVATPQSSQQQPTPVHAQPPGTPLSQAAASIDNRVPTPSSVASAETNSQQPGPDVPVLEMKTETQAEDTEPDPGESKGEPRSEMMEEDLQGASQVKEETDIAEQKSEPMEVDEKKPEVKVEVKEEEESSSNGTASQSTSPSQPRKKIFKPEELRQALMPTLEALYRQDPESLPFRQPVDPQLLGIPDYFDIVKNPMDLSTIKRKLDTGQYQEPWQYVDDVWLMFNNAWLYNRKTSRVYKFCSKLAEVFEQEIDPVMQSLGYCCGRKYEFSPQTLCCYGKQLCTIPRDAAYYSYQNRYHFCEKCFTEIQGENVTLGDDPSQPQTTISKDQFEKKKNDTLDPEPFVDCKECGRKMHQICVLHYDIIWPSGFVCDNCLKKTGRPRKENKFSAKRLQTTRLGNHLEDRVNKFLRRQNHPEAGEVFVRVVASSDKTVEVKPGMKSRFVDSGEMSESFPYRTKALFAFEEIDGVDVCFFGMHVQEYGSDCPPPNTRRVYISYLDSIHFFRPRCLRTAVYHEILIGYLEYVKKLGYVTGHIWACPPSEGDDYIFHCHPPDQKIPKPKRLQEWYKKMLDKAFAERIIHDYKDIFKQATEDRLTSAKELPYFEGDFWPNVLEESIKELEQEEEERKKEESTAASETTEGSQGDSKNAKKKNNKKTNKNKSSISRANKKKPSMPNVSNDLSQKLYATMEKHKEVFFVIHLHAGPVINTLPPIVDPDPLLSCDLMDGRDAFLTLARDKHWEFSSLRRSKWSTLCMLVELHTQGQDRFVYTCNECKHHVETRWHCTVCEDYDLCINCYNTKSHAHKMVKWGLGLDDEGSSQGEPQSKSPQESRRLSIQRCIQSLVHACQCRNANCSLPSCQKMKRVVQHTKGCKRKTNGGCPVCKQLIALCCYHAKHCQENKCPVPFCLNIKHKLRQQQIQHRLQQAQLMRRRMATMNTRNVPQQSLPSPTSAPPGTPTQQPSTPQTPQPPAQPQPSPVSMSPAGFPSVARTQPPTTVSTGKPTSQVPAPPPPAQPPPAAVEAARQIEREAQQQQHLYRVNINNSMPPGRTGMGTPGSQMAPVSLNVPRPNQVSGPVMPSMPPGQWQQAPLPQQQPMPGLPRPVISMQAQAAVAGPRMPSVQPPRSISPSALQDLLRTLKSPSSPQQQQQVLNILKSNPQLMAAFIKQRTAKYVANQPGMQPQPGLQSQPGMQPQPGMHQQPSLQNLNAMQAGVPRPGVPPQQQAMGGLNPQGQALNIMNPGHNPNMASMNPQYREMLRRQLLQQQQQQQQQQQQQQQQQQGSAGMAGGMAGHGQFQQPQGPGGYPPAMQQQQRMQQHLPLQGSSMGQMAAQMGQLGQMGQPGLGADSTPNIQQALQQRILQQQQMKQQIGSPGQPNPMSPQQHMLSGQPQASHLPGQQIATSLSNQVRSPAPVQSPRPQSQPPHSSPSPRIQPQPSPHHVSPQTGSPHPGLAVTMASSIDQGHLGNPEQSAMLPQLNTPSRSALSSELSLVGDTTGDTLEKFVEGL

Biological target: CREB (UniProt P16220)
Assay: co-IP; HepG2 cells treated with 3 uM A-485 (with or without 8-Br-cAMP); lysates incubated with indicated antibodies for 2 h, then with protein A/G-agarose beads overnight at 4 C; western blot

binding | Molecule
binds | CREB-binding protein (from UniProt Q92793 1-2442)
binds | TORC2 (protein, UniProt Q53ET0 1-693) MATSGANGPGSATASASNPRKFSEKIALQKQRQAEETAAFEEVMMDIGSTRLQAQKLRLAYTRSSHYGGSLPNVNQIGSGLAEFQSPLHSPLDSSRSTRHHGLVERVQRDPRRMVSPLRRYTRHIDSSPYSPAYLSPPPESSWRRTMAWGNFPAEKGQLFRLPSALNRTSSDSALHTSVMNPSPQDTYPGPTPPSILPSRRGGILDGEMDPKVPAIEENLLDDKHLLKPWDAKKLSSSSSRPRSCEVPGINIFPSPDQPANVPVLPPAMNTGGSLPDLTNLHFPPPLPTPLDPEETAYPSLSGGNSTSNLTHTMTHLGISRGMGLGPGYDAPGLHSPLSHPSLQSSLSNPNLQASLSSPQPQLQGSHSHPSLPASSLARHVLPTTSLGHPSLSAPALSSSSSSSSTSSPVLGAPSYPASTPGASPHHRRVPLSPLSLLAGPADARRSQQQLPKQFSPTMSPTLSSITQGVPLDTSKLSTDQRLPPYPYSSPSLVLPTQPHTPKSLQQPGLPSQSCSVQSSGGQPPGRQSHYGTPYPPGPSGHGQQSYHRPMSDFNLGNLEQFSMESPSASLVLDPPGFSEGPGFLGGEGPMGGPQDPHTFNHQNLTHCSRHGSGPNIILTGDSSPGFSKEIAAALAGVPGFEVSAAGLELGLGLEDELRMEPLGLEGLNMLSDPCALLPDPAVEESFRSDRLQ
